From patent US7985736B2, “High throughput screen utilizing newly discovered intramolecular neuronal calcium channel interactions to discover new analgesics” (The John Hopkins University, priority 2004, dated 2011)
At least one peptide structure holds a part that was inferred or is arguable (an end, a ring closure or a residue). Ends that are not written are not given here.

How the values were obtained:
[1] = target: T1, N-type (α1B) Ca2+ channels (Homo sapiens, UniProt Q00975); assay: Whole-cell G/Q analysis and prepulse facilitation of recombinant N-type channels coexpressed with peptide in HEK293 cells; format: cell-based; details: Gmax after 100 mV prepulse
T1 construct: transferred by EcoRI and Bgl II sites into the full-length α1B construct; expressed in transfected cells; host or cells: HEK293
From the text: FIG. 3A illustrates an approach for N-type channels without Gβγ coexpression. Exemplar currents activated quickly and were barely facilitated by strong prepulse depolarization (FIG. 3A, left). The slight residual prepulse facilitation reflects basal endogenous Gβγ activation. To estimate open probability, two intermediary parameters were specified. First, to gauge the number of channels in a cell (Nchannel), the channel gating current at the reversal potential for ionic current were isolated (FIG. 3A, middle left) (Jones et al., 1999). The area under this current yields the maximal gating charge Qmax, where Qmax=Nchannel×qmax, and qmax is the maximal gating charge per channel. Second, Gmax for a given cell, the maximal ionic current conductance determined as the slope of the peak current-voltage relation at depolarized potentials were determined (FIG. 3A, middle right, line). Here and throughout, current-voltage relations were determined after a 100 mV prepulse, which transiently relieves all G protein inhibition (Colecraft et al., 2000), thus eliminating these inhibitory effects in the estimate of Gmax. […] Gmax determined after prepulse de-polarization, when plotted against Qmax, specifies an identical slope to that without Gβγ (FIG. 3B, right, G/Q=0.43±0.04 nS/fC). […]

I-II loop of α1B (I-IIB) = target: T2, I-II loop of α1B (I-IIB) (Homo sapiens, UniProt Q00975); assay: Yeast two-hybrid assay, NT peptides versus I-IIB; format: binding; details: NT segment in pGBKT7, I-IIB in pGADT7
T2 construct: I-IIB(357-482)-pGADT7 & lam-pGBKT7; expressed in transfected cells; host or cells: AH109 yeast
From the text: For yeast two-hybrid assays, a PCR fragment encoding one partner was fused, in-frame, with the GAL4 DNA binding domain (BD) in pGBKT7 (Clontech, Palo Alto, Calif.). The other element was fused, in-frame, with the GAL4 activation domain (AD) in pGADT7. For specific residues, see Supplemental Data (section 2). For electrophysiology, NT peptides lacking fluorophore tag were PCR amplified and cloned in pcDNA3. NTB peptide residues, 1-95; NTC residues, […]. Throughout, all segments subject to PCR or QuikChange were verified in their entirety by sequencing.
The Matchmaker GAL4 Two-Hybrid System 3 was used (Clontech, Palo Alto, Calif.). AH109 yeast were transformed with pGBKT7/pGADT7-based constructs (Yeastmaker Yeast Transformation System 2 kit, Clontech). After 5-8 days, growth on -leucine/-trytophan plates confirmed transformation of both plasmids. […]
As a ‘medium’ stringency assay, expression of the lacZ gene was tested for encoding β-galactosidase, performing a filter lift with application of blue chromogenic substrate (Clontech-Laboratories, 1999). […] The percentage of colonies that turned blue in the filter lift assay, along with the percentage of colonies that survived on high stringency plates, was recorded for each pairing. […]

Sequence	Effect on G/Q slope (Gmax-Qmax relation), with Gβγ [1]	Interaction with I-IIB (yeast two-hybrid, ΔB) (I-II loop of α1B (I-IIB))
MALYNPIPVKQNCFTVNRSLFVFSEDNVVRKYAKRITEWP [NTB (56-95)]	depressed Gmax-Qmax relations to the same extent as did full NTB	fully capable of such binding
MVRFGDELGGRYGGPGGGERARGGGAGGAGGPGPGGLQPGQRVL [NTB (1-44)]	essentially unchanged from control	showed little interaction
